Reference: PubChem BioAssay AID1347075 (National Center for Advancing Translational Sciences (NCATS), 2019)
Out of some 400,000 compounds screened, about 5,500 (1.4%) were called active. Inconclusive means that the source gave no clear call. Such entries were picked first, then a sample of the others. Calls follow the shape of the dose curve; as a rule, active = well fitted cell-killing curve with a large enough effect; inconclusive = small, poorly fitted or top-dose-only effect, or effect the other way; inactive = flat fitted curve, though single readings scatter. Where the call is inconclusive, the potency comes from a doubtful curve fit.

test: qHTS assay for MDR1-selective chemotherapeutics: Primary screen using the parental adenocarcinoma cell KB-3-1; settings: KB-3-1 viability, CellTiter-Glo ATP luminescence, 72 h; activity change, negative = cytotoxic: at 46.1 µM (top of the series); also: nearly all actives have a fitted effect of over 60% in size
Procedure, shortened: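 KB-3-1 parental drug-naive adenocarcinoma cells in DMEM/10% FBS, incubated 72 h at 37 C with pin-transferred compounds across a concentration series. Viability by CellTiter-Glo luminescence; concentration-response curves fitted after normalization.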
% is scaled to controls: 0 for no effect and ±100 for the full control effect; potency is read from the fitted curve at half-maximal effect.

Row | SMILES | Potency | activity change, negative = cytotoxic
1 | O=S(=O)(c1ccccc1)N(CC(O)Cn1c2ccccc2c2ccccc21)c1ccccc1 (centres undefined) | inconclusive: 16.4 µM [cytotoxic, single point] | –
2 | CCOc1ccc(-c2nnc(Nc3ccc(OC)c(C(=O)N4CCCCC4)c3)c3ccccc23)cc1 | inconclusive: 29.1 µM [cytotoxic, single point] | –
3 | CC(C)(C)OC(=O)N1CCC(NC(=O)c2ncn(Cc3ccccc3)c2C(=O)NC2CCN(C(=O)OC(C)(C)C)CC2)CC1 | inconclusive: 29.1 µM [cytotoxic, single point] | –
4 | Cc1ccc2nc(-c3ccccc3)c(Cc3cccc(Cl)c3)n2c1 | – | inactive: -23.9%
5 | Cc1ccccc1-c1noc(N)c1C#N | – | inactive: -1.77%
6 | O=C1C(Cl)=C(NCC2CCCO2)C(=O)N1Cc1ccccc1 (centres undefined) | inconclusive: 9.2 µM [cytotoxic, partial curve] | –
7 | COc1ccc(-c2nc(NC(=O)C3CC(=O)N(Cc4ccco4)C3)sc2C)cc1 (centres undefined) | inconclusive: 23.1 µM [cytotoxic, single point] | –
8 | CC(C)(C)c1ccc(C(=O)NCC(=O)OCCN2C(=O)c3ccccc3C2=O)cc1 | inconclusive: 14.6 µM [rising, single point] | –
9 | Cc1ccc(NS(=O)(=O)c2cc(NC(=O)c3ccc4c(c3)NC(=O)CS4)ccc2Cl)c(C)c1 | inconclusive: 29.1 µM [cytotoxic, single point] | –
10 | O=C(CSc1nnc(-c2ccccc2)n1Cc1ccccc1)NNC(=O)c1ccccc1O | inconclusive: 32.6 µM [cytotoxic, single point] | –
11 | Cc1nn(Cc2ccc([N+](=O)[O-])cc2)c(=O)n1-c1c(F)cccc1F | – | inactive: 2.77%
12 | CCOc1ccc2nc(N(CCCN(C)C)C(=O)c3ccc4c(c3)CCCC4)sc2c1 | active: 20.6 µM | –
13 | COc1ccccc1OCC(=O)Nc1cc(S(=O)(=O)N2CCOCC2)ccc1N1CCCCC1 | – | inactive: -4.45%
14 | COc1ccccc1NC(=S)N1CCCc2ccccc21 | inconclusive: 0.206 µM [rising, full curve] | –
15 | Cc1cccc(C)c1-n1c(C)nn(CCOc2ccccc2)c1=O | – | inconclusive: 7.16%
16 | CC1(C(=O)NCc2ccccc2)Cc2c(-c3cccc(C(F)(F)F)c3)ccnc2O1 (centres undefined) | active: 16.4 µM | –
17 | CCN(C(=O)COC(=O)CSc1ccc(C)cc1C)c1c(N)n(Cc2ccccc2)c(=O)[nH]c1=O | – | inconclusive: 1.35%
18 | COC(=O)c1ccc(C)c(NC(=O)CCCN2C(=O)CN(C)C2=O)c1 | – | inactive: -8%
19 | CC1CCC(NC(=O)C2CCN(c3nc4ccccc4s3)CC2)CC1 (centres undefined) | inconclusive: 6.51 µM [cytotoxic, partial curve] | –

Full records from above.
Cc1ccc2nc(-c3ccccc3)c(Cc3cccc(Cl)c3)n2c1 reads activity change, negative = cytotoxic: inactive: -23.9%
CC1(C(=O)NCc2ccccc2)Cc2c(-c3cccc(C(F)(F)F)c3)ccnc2O1 (centres undefined) reads Potency: active: 16.4 µM
